These are yes or no findings as the source states them, for the method shown.
Target: ASCH domain-containing protein from Zymomonas mobilis ZM4 (ZmASCH) (Zymomonas mobilis ZM4)
Experiment: SEC; elution profile of the size exclusion step of the recombinant purified protein (Supplementary Fig. 1); both purified

Amino acid sequences for entries named in this document (tags omitted).
UniProt A0A0H3G0N3: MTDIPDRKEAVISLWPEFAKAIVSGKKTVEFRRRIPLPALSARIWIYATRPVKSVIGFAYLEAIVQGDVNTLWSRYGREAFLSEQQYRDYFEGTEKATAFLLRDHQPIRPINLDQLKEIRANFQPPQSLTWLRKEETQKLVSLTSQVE

- binding: no binding
Substance: ASCH domain-containing protein from Zymomonas mobilis ZM4 (ZmASCH) (from UniProt A0A0H3G0N3 1-148)

From publication PMC5615036, “Crystal structure of an ASCH protein from Zymomonas mobilis and its ribonuclease activity specific for single-stranded RNA”
